Values from PubChem BioAssay AID1159578 (Peter MacCallum Cancer Centre, 2015).
Aim: 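Genome-wide hunt for genes controlling movement of lymphatic endothelial cells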 (primary screen). Cells: human lymphatic endothelial cells. Reagents: siRNA pool against human genes, 40 nM. Time to read-out: 48 h after transfection. Measured: 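High-content imaging of dye-stained cells in a scratch assay measures filled wound area and nuclei per well; duplicate means given as ratio to mock and robust z-score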. Direction: migration robust z-score: higher = faster migration into the scratch; migration relative to mock: higher = more scratch area covered than mock; nuclei per well: higher = more cells in the well. Active means: 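Pools averaging fewer than 3300 nuclei are never called; remaining pools count as changed when migration robust z lies outside -2 to 2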. Meaning of the calls: active = migration changed; inactive = no migration change, or too few cells.
The whole screen tested about 18,000 reagents; below is a random part of them. Over the whole deposit, about 1,030 (5.7%) are marked active. 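Inactive calls also include pools with fewer than 3300 nuclei, whose migration was not assessed.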 The raw values are shown without normalisation. Unmarked entries are inactive. Reagent sequences are not shown.

no.	target	PubChem SID	migration robust z-score	migration class with cell-count check	migration relative to mock	nuclei per well, duplicate mean
1	MRPS12	SID255352202	-0.29	migration z between -2 and 2; enough cells	0.81	3489
2	TAS2R38	SID255351917	-1.6	migration z between -2 and 2; enough cells	0.48	3620
3	SLC26A2	SID255349386	-0.05	migration z between -2 and 2; enough cells	0.8	6469
4	LCE3B	SID255365279	0.75	migration z between -2 and 2; enough cells	1.08	5329
5	MCRS1	SID255355083	-1.12	under 3300 nuclei; migration not judged	0.59	3179
6	ANKRD13C-DT	SID255355630	-0.66	under 3300 nuclei; migration not judged	0.72	3256
7	OR5B3	SID255365955	0.24	migration z between -2 and 2; enough cells	0.94	5896
8	POM121L2	SID255362105	-1.64	migration z between -2 and 2; enough cells	0.46	6382
9	KRT38	SID255353738	-0.71	under 3300 nuclei; migration not judged	0.7	1890
10	ODAD4	SID255361016	0.03	migration z between -2 and 2; enough cells	0.9	4548
11	HTR3C	SID255363904	-0.16	migration z between -2 and 2; enough cells	0.78	5608
12	GUCY1A2	SID255350099	-0.02	migration z between -2 and 2; enough cells	0.8	5768

Entries above whose target name starts with O or o:
target	PubChem SID	migration robust z-score	migration class with cell-count check	migration relative to mock	nuclei per well, duplicate mean
OR5B3	SID255365955	0.24	migration z between -2 and 2; enough cells	0.94	5896
ODAD4	SID255361016	0.03	migration z between -2 and 2; enough cells	0.9	4548

Continued.
no.	target	PubChem SID	migration robust z-score	migration class with cell-count check	migration relative to mock	nuclei per well, duplicate mean
13	CYCS	SID255357981	-0.6	migration z between -2 and 2; enough cells	0.69	4846
14	SIRT5	SID255356219	-0.42	migration z between -2 and 2; enough cells	0.72	5784
15	HPS6	SID255360476	0.7	migration z between -2 and 2; enough cells	1.06	5520
16	THEM5	SID255364792	-0.39	migration z between -2 and 2; enough cells	0.78	5798
17	HSFY1	SID255361724	-0.93	migration z between -2 and 2; enough cells	0.62	6267
18	PLCH1	SID255355921	1.33	migration z between -2 and 2; enough cells	1.06	5892
19	OR10W1	SID255360863	-0.9	migration z between -2 and 2; enough cells	0.65	5520
20	OR11G2	SID255365650	-0.18	migration z between -2 and 2; enough cells	0.84	5399
21	PCDH19	SID255359442	-0.4	migration z between -2 and 2; enough cells	0.78	5156
22	HLCS	SID255350216	0.78	migration z between -2 and 2; enough cells	0.96	6440
23	ZFAND1	SID255360441	0.3	migration z between -2 and 2; enough cells	0.96	4745
